In the supplement of paper PMC3334620:
Whole data set: some 33,000 sequences, median “E-score (-0.5 to 0.5)” near -0.0059, cut for the highest 2% near 0.26. Some of the results follow.

molecular target: T1, Cin5 (UniProt P40917); assay: PBM E-score (8-mer binding enrichment) (E-score (-0.5 to 0.5)); higher = stronger / more preferred TF binding; details: protein concentration: 100 nM; construct: GST-full length
T1 sequence: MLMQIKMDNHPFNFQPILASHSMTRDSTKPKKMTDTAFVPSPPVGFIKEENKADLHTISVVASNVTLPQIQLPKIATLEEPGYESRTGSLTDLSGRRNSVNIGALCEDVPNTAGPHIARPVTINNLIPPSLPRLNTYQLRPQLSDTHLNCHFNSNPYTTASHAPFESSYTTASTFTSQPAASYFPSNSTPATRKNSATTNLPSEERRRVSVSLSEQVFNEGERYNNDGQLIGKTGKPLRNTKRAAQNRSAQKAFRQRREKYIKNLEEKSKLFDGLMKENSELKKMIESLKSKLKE
In short: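 E-scores (a modified Wilcoxon-Mann-Whitney statistic) were assigned by the Universal PBM Analysis Suite to every ungapped eight-base word pooled with its reverse complement. The input came from universal all-10-mer Agilent arrays made double-stranded by primer extension and probed with GST-tagged yeast transcription factors at about 100-200 nM. Fluorescent anti-GST detected bound protein, and masliner normalised the scans.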

Sequence | PBM E-score
GTCAGTTA | -0.0446
CAACTTCC | 0.149
ACCTAGTG | 0.14
CACAGCTC | -0.106
AGAGACTA | -0.183
GGCACGAC | -0.165
AAGATTGG | 0.0559
AAATTCTG | 0.139
CGTCGTAA | 0.0474
AATGGGTC | -0.053
CACAGATC | 0.0227
CCGATCCC | -0.338
AGTTTGCA | 0.0867
GCGCCATA | -0.13
AAATGCAG | 0.0624
TCTTGCCA | -0.0284
TCAGGGAA | -0.0524
CCTATTAG | 0.0132
CCCCATAA | 0.00568
CGCTGGCA | -0.153
CAGCATCG | -0.16
AGGGATTC | -0.142
CCATATGC | 0.129
GCAGGACC | -0.207

Sequence | PBM E-score
GCCGGAGC | -0.302
CCCATTCG | 0.021
CCACTATA | 0.154
GTTTCCGA | 0.12
GAAATGAC | 0.168
AATATGCG | 0.236
AATTTTGC | 0.0341
AAGCCCTG | -0.226
AGAATGCC | -0.0721
TAGAAATA | 0.0863
TGGTCGAA | -0.242
AGTGAACA | 0.13
CGCTTTAG | -0.0206
GTTGTTGA | 0.196
GATTTGTA | 0.2
CTGGCCAC | -0.0521
ACCTGTCC | -0.135
GATCTATA | -0.099
CAAACCCG | -0.226
AGTTAGCC | -0.0486
ACGGATAG | 0.141
GGAACTGA | -0.0383
ACGGCCGA | 0.0311
CAGCGTCG | -0.0104

Sequence | PBM E-score
CCAGAGCC | -0.058
CGCTTCTC | 0.0273
GACTAATA | 0.229
ATGTAAGG | 0.103
GCGCGCCA | 0.105
ACATCTAA | -0.0123
CCTCGCAA | -0.0418
AACCCTCG | -0.116
CAGAGCGA | -0.00131
GTGGTTTA | 0.0817
TTATTCAA | 0.0609
AGGGGCGA | -0.129
AGCAGTAA | 0.134
ATGATAGG | -0.0261
AGTCAAAT | 0.105
AGGGTCCA | -0.306
GCATACGC | -0.107
ATACCCGA | 0.0131
AGAGTAGG | 0.127
ACTCTTGC | -0.108
CGCTTCAC | -0.054
GGGGAACA | -0.17
GAATTGTC | -0.0592
CGACCCAA | 0.0574

Sequence | PBM E-score
ATCTGAGG | -0.00049
AGCAGAGG | -0.195
ACGTTCTC | 0.0647
CTCCCGCC | -0.136
CTAAGTGA | 0.0839
ATGCTATC | -0.00354
TCCAGAAA | 0.0657
CAGTTACG | -0.0855
ACTCGATC | 0.114
CACTTGCA | 0.139
CAAGGCGA | -0.153
GGTGAGAA | 0.0538
ACTGTGAA | 0.0538
ACTCTATG | -0.0375
ACGGTCAG | -0.327
AGGAAACG | 0.0763
CCCGTAAC | -0.0624
TGAGGCAA | 0.0785
ACATTGAG | 0.0404
GACTTAGA | -0.215
CAACAAAA | 0.077
CACCCTTC | -0.0932
TCCGCGGA | 0.226
CTCCGGAG | -0.056

Quoted at random: seven entries already listed.
Sequence | PBM E-score
CTCCGGAG | -0.056
GGTGAGAA | 0.0538
ACTCGATC | 0.114
GACTTAGA | -0.215
CACCCTTC | -0.0932
CTCCCGCC | -0.136
CAAGGCGA | -0.153

(continued)

Sequence | PBM E-score
ATACAAGG | -0.0112
ATGCATCA | 0.287
AAACGCCC | -0.0126
CACAACTC | 0.169
CAAACAAG | 0.0817
GCATCTCA | 0.137
GCAGCGCA | -0.0951
CTTTATCA | -0.0921
ACAGCATA | 0.0813
AGTTTACC | -0.108
ACCGGCAA | -0.109
AACAGCCG | -0.0368
CAGATGAA | 0.0352
GACGACAC | -0.0115
CAAAGATC | 0.0133
AATGTCAG | 0.0493
ACTCTCTA | -0.107
GCCGACGC | 0.0517
CCTAGGCC | -0.141
CAAAGGGG | -0.0662
AGATTCAG | -0.0755
CGGAGTGA | 0.0979
AGCCAGCG | -0.12
ACTCTCCT | -0.156

Sequence | PBM E-score
GCAGCGAA | -0.156
ATTCTAGG | -0.117
CTACAGAC | -0.21
AGGAACAG | -0.132
ACCCAGCA | -0.0912
ATCATCTA | 0.16
ATCCTAAT | 0.0491
CCTTGTTC | -0.102
CACCCAGA | 0.0225
ATAGTGAC | 0.0237
CATTGGCG | -0.214
ATGACGTA | 0.338
ATGGTTGC | -0.0733
CAAGAACG | 0.0383
GATGTGCA | 0.0309
ATGTTTTC | 0.121
ATCAAATA | 0.242
ATACCTGC | -0.113
ATCGTAAT | 0.385
CCATTCAA | 0.0943
AGCTAATG | 0.114
CGAGACAA | -0.0372
AGCTCACG | -0.0609
ACAAAGCA | 0.179
